Measurements from article doi:10.1101/2024.09.19.613943.
These are yes or no findings as the source states them, for the method shown. Binding seen in cells or lysates may run through a third protein. Some binding calls cover weakened binding; strength is not graded here. For part of these data: Where a sequence is shown, tags or fusion partners need not be part of it. One block for each molecule: values may come before it.

Amino acid sequences for entries named in this document (tags omitted).
UniProt Q04744: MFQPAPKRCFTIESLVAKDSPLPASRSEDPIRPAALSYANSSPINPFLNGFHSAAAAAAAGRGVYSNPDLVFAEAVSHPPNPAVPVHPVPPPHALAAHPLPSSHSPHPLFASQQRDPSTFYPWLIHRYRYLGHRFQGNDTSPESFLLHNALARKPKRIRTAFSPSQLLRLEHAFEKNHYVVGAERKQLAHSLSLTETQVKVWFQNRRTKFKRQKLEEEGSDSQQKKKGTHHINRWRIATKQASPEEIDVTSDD
UniProt P70288: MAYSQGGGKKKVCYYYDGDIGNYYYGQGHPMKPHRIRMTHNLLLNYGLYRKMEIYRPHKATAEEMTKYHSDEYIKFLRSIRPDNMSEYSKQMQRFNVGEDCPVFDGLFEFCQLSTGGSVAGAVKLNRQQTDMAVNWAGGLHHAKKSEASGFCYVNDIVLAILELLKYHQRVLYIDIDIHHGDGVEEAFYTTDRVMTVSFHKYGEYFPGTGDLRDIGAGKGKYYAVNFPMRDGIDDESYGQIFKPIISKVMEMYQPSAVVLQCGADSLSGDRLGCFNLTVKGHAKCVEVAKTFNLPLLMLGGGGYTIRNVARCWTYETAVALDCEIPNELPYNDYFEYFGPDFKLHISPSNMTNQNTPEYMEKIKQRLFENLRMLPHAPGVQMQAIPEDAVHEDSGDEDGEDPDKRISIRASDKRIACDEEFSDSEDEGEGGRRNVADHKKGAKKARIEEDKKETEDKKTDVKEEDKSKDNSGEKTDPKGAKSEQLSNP
UniProt Q8K4B0: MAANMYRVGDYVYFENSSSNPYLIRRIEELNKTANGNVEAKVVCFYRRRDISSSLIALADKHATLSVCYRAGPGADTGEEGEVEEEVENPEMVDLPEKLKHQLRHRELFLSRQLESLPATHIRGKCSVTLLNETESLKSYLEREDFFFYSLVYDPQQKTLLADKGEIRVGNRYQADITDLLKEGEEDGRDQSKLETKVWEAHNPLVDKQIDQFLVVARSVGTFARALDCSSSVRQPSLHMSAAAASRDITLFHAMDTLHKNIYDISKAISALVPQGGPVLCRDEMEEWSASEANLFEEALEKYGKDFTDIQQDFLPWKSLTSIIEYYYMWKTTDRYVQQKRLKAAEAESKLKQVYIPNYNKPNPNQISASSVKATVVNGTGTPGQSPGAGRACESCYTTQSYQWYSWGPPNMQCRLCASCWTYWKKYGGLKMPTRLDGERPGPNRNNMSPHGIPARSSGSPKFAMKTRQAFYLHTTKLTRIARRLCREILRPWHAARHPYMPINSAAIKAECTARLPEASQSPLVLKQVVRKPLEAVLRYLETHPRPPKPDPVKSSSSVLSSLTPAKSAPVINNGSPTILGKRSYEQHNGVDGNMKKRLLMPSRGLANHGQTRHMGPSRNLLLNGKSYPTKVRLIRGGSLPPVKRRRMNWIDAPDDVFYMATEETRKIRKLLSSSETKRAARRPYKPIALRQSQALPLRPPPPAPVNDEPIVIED

Legend:
[1] = molecular target: T1, LIM domain binding protein 1 (Ldb1), endogenous in E12.5 cortex (mouse (endogenous in E12.5 cortex)) (UniProt P70662); test: co-IP
T1 sequence: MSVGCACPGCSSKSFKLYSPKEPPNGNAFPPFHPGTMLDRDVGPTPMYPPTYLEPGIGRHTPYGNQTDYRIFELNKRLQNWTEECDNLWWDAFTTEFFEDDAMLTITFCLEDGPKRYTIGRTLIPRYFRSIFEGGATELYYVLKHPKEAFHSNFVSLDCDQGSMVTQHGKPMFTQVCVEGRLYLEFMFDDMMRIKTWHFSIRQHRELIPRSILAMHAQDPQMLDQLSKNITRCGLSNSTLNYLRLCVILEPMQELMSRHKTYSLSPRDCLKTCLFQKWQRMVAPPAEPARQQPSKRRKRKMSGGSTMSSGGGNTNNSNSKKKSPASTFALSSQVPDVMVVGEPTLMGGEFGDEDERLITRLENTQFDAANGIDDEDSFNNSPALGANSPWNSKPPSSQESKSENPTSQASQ

[2] = molecular target: Flag-Emx2 (pCS2-Flag-Emx2) (UniProt Q04744); test: co-IP

binding [1]: binds
Molecule: HDAC2 (from UniProt P70288 1-488)

binding [1]: binds
Molecule: MTA1 (from UniProt Q8K4B0 1-715)

binding [2]: binds
B1: HA-Flag-Ldb1 (protein, UniProt P70662 1-411)
chain: T1 sequence
